Three substances from article PMC6883375, “Enolase From Aspergillus fumigatus Is a Moonlighting Protein That Binds the Human Plasma Complement Proteins Factor H, FHL-1, C4BP, and Plasminogen” (Frontiers in Immunology, 2019) can be followed below.

The chains behind the UniProt entries cited, without tags or fusion partners. Where a name states a change or a piece, a line headed by the entry shows the natural chain unless it says otherwise. Residues count along the entry.
UniProt Q96X30: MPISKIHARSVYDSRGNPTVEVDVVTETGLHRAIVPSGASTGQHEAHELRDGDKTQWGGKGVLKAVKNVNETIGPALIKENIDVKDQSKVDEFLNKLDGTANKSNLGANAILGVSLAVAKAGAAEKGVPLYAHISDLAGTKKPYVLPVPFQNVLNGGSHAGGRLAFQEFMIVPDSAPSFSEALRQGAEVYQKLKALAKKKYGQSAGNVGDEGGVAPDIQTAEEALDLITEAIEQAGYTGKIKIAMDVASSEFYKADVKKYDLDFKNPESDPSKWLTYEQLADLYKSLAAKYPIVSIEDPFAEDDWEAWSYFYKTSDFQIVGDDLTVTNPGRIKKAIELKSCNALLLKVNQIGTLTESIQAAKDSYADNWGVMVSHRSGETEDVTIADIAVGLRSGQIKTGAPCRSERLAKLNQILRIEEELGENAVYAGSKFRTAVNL
UniProt P04003: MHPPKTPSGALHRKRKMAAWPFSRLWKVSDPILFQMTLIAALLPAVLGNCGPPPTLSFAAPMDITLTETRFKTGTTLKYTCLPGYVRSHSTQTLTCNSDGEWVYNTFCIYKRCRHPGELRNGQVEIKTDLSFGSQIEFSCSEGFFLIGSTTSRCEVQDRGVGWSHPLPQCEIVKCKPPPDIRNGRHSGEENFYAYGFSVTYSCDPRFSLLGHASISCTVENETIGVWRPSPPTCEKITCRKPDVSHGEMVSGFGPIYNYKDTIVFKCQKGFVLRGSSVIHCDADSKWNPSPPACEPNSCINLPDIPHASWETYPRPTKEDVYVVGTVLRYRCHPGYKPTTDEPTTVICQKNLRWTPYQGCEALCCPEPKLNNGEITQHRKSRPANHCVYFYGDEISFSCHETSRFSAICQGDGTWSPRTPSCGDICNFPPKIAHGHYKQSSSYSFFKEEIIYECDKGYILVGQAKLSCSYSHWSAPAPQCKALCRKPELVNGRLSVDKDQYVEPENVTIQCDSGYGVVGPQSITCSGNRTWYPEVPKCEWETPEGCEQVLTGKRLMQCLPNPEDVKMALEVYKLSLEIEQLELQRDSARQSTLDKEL
UniProt P08603, residues 19-1231: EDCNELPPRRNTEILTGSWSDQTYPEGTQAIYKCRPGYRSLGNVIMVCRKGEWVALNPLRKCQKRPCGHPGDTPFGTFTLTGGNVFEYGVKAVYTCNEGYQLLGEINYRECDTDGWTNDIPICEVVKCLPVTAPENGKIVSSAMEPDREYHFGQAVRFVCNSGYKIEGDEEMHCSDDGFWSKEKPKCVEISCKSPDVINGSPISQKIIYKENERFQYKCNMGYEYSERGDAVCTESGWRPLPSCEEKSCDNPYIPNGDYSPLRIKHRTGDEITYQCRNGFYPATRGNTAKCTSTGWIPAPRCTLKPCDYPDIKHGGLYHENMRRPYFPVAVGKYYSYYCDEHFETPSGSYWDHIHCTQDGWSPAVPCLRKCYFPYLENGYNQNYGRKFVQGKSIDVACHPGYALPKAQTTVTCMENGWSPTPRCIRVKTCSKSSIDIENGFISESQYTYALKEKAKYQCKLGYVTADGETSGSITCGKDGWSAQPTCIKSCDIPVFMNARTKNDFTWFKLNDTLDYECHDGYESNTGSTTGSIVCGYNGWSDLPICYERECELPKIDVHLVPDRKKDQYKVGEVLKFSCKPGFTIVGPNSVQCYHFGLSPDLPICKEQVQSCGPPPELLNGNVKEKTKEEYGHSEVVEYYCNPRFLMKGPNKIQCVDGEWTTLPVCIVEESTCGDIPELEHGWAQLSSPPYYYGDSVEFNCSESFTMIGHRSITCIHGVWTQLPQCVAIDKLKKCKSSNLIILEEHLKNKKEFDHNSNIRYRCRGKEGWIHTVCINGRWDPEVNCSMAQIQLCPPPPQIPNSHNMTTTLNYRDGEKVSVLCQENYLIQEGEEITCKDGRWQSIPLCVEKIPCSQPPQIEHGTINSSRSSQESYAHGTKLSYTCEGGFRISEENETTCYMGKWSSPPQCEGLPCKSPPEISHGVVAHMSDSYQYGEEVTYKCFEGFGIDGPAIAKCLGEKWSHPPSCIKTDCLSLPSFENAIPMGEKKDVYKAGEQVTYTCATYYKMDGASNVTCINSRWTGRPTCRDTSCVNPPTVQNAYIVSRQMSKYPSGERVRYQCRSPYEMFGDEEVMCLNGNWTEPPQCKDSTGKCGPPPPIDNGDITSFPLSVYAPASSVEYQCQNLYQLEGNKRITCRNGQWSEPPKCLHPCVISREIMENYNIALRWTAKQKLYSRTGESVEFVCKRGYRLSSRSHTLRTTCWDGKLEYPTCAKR

The target of assay [1] is Aspergillus fumigatus enolase (AfEno1), recombinant His-tagged (Aspergillus fumigatus) (UniProt Q96X30). Briefly: ELISA; AfEno1 or gelatin (1 μg/well in DPBS) immobilised on microtiter plate, blocked with 0.2% gelatin; factor H, FHL-1, factor H/FHL-1 deletion mutants, C4BP or plasminogen added 1 h at RT; detected with specific antisera; both purified.
Assay [2] shares this target. Put plainly: ELISA; AfEno1 immobilised; normal human serum (NHS; 10 mM EDTA for C4BP and plasminogen) at increasing amounts added 1 h at RT; bound regulator detected with specific antiserum; only the target purified. A general note: An ELISA detects its analyte on a solid surface through an enzyme-linked reagent.
For assay [3], the target named is human C4b binding protein (C4BP) (human) (UniProt P04003). Put plainly: ELISA; factor H, FHL-1, C4BP, plasminogen or gelatin (1 μg/well in DPBS) immobilised, blocked with 0.2% gelatin; AfEno1 at increasing amounts added 1 h at RT; detected with rabbit AfEno1 antiserum; both purified.
In assay [4] the target is Aspergillus fumigatus enolase (AfEno1), recombinant His-tagged (Aspergillus fumigatus) (UniProt Q96X30). Put plainly: BLI; His-tagged AfEno1 on Ni-NTA biosensors; factor H, C4BP or plasminogen as analyte; DPBS with 0.001% gelatin, RT; association 250 s, dissociation 250 s; 1:1 model; heat inactivated regulators as non-binding control; both purified. (BLI is a label-free optical method that tracks binding on a fibre tip over time.)

No constants are given. Whether binding was seen depends on the method and setting. Some entries that bind do so weakly or less than the wild type.

Regarding “human C4b binding protein (C4BP) (from UniProt P04003 49-597; P20851 18-252) (complex)”, the binding result in assay [1] and in assay [2] was “binds” in each case.
As to “Aspergillus fumigatus enolase (AfEno1), recombinant His-tagged (from UniProt Q96X30 1-438)”, in assay [3], the binding result was “binds”.
Consider “human factor H (from UniProt P08603 19-1231)”, for which, in assay [4], the binding entry was “no binding (condition: heat-inactivated (95°C) factor H)”.
